Source: PubChem BioAssay AID1053208 (Peter MacCallum Cancer Centre, 2014)

- Assay: 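Find knock-downs that sensitise mouse osteosarcoma cells to doxorubicin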 (primary screen)
- System: mouse osteosarcoma cells, early-passage culture from an engineered mouse model of fibroblastic bone tumour
- Knock-down reagent: siRNA pool against mouse genes, 40 nM
- Duration: about 120 h (48 h before drug, then 72 h with drug)
- Conditions: doxorubicin 100 nM for 72 h, roughly 30-40% inhibitory dose
- Detection: 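Luminescent ATP signal taken as viability with or without 100 nM doxorubicin for 72 h; mean of two wells set against non-targeting siRNA and turned into robust z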
- Direction: viability z-score with doxorubicin and doxorubicin viability vs non-targeting: higher = more viable cells under doxorubicin; viability z-score without drug: higher = more viable cells with knock-down alone; z-score of drug to no-drug ratio: higher = less drug sensitisation by knock-down
- Active means: 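Called active if knock-down leaves viability unchanged without drug (z within -2 to 2) but lowers it with doxorubicin (z at or under -2)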
Shown is one part, drawn at random, of about 17,000 reagents. 788 of all reagents (4.7%) count as active. 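Calls rest on z-score classes alone; an extra cut-off of viability at most 70% of control was not applied to them.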 Reagents against one gene are numbered here. No sequences are given here.

| Gene | pool no. | combined z-score class | viability z-score with doxorubicin | viability z-score without drug | z-score of drug to no-drug ratio | doxorubicin viability vs non-targeting | Call |
| --- | --- | --- | --- | --- | --- | --- | --- |
| Epha1 (GeneID 13835) | 1 | no change with or without drug | 0 | -0.84 | 0.67 | 0.94 | inactive |
| D830039M14Rik (GeneID 320949) | 1 | no change with or without drug | 0 | -0.17 | 0.22 | 0.94 | inactive |
| Simc1 (GeneID 319719) | 1 | no change with or without drug | 1.12 | 1.85 | 0 | 1.04 | inactive |
| Kpna6 (GeneID 16650) | 1 | no change with or without drug | -1.12 | -1.85 | 0.22 | 0.84 | inactive |
| 2810428J06Rik (GeneID 67058) | 1 | no change with or without drug | -0.56 | -1.18 | 0.34 | 0.89 | inactive |
| C030018K18RIK | 1 | no change with or without drug | 0.45 | -1.18 | 1.46 | 0.98 | inactive |
| Tlk2 (GeneID 24086) | 1 | no change with or without drug | 0 | 0.84 | -0.45 | 0.94 | inactive |
| Slc5a1 (GeneID 20537) | 1 | no change with or without drug | -1.57 | -1.01 | -0.9 | 0.8 | inactive |
| Timd2 (GeneID 171284) | 1 | no change with or without drug | 0.45 | -0.17 | 0.67 | 0.98 | inactive |
| Gys1 (GeneID 14936) | 1 | no change with or without drug | 1.35 | 0.84 | 0.9 | 1.06 | inactive |
| Gys1 (GeneID 14936) | 2 | no change with or without drug | 0.9 | -0.51 | 1.46 | 1.02 | inactive |
| Plxna4os2 (GeneID 330283) | 1 | no change with or without drug | -1.24 | 1.52 | -2.02 | 0.83 | inactive |
| Phpt1 (GeneID 75454) | 1 | no change with or without drug | 0.22 | 0.34 | 0.11 | 0.96 | inactive |
| Cmtm2a (GeneID 73381) | 1 | no change with or without drug | -1.12 | -1.85 | 0.22 | 0.84 | inactive |
| Tram1l1 (GeneID 229801) | 1 | no change with or without drug | 0.45 | -1.52 | 1.8 | 0.98 | inactive |
| Tent5b (GeneID 100342) | 1 | no change with or without drug | 1.12 | 0.67 | 0.79 | 1.04 | inactive |
| Nckipsd (GeneID 80987) | 1 | no change with or without drug | 0.67 | -0.51 | 1.24 | 1 | inactive |
| Mchr1 (GeneID 207911) | 1 | no change with or without drug | -0.56 | -0.17 | -0.34 | 0.89 | inactive |
| Camk2d (GeneID 108058) | 1 | no change with or without drug | 0.34 | -0.51 | 0.79 | 0.97 | inactive |
| Efhb (GeneID 211482) | 1 | no change with or without drug | -0.11 | 0.51 | -0.34 | 0.93 | inactive |
| Slc35d1 (GeneID 242585) | 1 | no change with or without drug | -1.12 | -1.52 | 0 | 0.84 | inactive |
| Npy1r (GeneID 18166) | 1 | no change with or without drug | -0.34 | -0.17 | -0.11 | 0.91 | inactive |
| Ace (GeneID 11421) | 1 | no change with or without drug | 0.22 | -0.84 | 1.01 | 0.96 | inactive |
| Psma6 (GeneID 26443) | 1 | low cell count with and without drug | -6.07 | -5.9 | -3.48 | 0.4 | inactive |
| Or8k3b (GeneID 258843) | 1 | low cell count without drug only | -0.9 | -2.19 | 0.79 | 0.86 | inactive |
| Slc26a7 (GeneID 208890) | 1 | high cell count with doxorubicin only | 2.02 | 1.85 | 0.9 | 1.12 | inactive |
| Npc1 (GeneID 18145) | 1 | no change with or without drug | 0.9 | -0.17 | 1.24 | 1.02 | inactive |
| Zfp420 (GeneID 233058) | 1 | no change with or without drug | -0.67 | 1.52 | -1.46 | 0.88 | inactive |
| Pls3 (GeneID 102866) | 1 | no change with or without drug | 0 | 1.01 | -0.56 | 0.94 | inactive |
| Pcdhb7 (GeneID 93878) | 1 | no change with or without drug | -1.12 | -0.51 | -0.79 | 0.84 | inactive |
| Or2t6 (GeneID 258387) | 1 | no change with or without drug | 0.45 | 1.69 | -0.56 | 0.98 | inactive |
| Aldh3a2 (GeneID 11671) | 1 | no change with or without drug | 0.34 | 1.35 | -0.45 | 0.97 | inactive |
| Mre11a (GeneID 17535) | 1 | no change with or without drug | 1.12 | -0.17 | 1.46 | 1.04 | inactive |
| Tmed1 (GeneID 17083) | 1 | no change with or without drug | 1.12 | -0.17 | 1.46 | 1.04 | inactive |
| Rbx1 (GeneID 56438) | 1 | low cell count without drug only | -1.91 | -2.87 | 0.11 | 0.77 | inactive |
| Stau1 (GeneID 20853) | 1 | no change with or without drug | 1.35 | 1.85 | 0.22 | 1.06 | inactive |
| Gm16938 (GeneID 330599) | 1 | no change with or without drug | 0.9 | -0.51 | 1.46 | 1.02 | inactive |
| Il6 (GeneID 16193) | 1 | no change with or without drug | 0.79 | 0.34 | 0.67 | 1.01 | inactive |
| Rtl6 (GeneID 223732) | 1 | no change with or without drug | 0.11 | 0.67 | -0.22 | 0.95 | inactive |
| Capza2 (GeneID 12343) | 1 | no change with or without drug | -0.11 | -0.17 | 0.11 | 0.93 | inactive |
| Tnr (GeneID 21960) | 1 | no change with or without drug | 0.67 | 0.51 | 0.45 | 1 | inactive |
| Nedd4 (GeneID 17999) | 1 | no change with or without drug | 0 | -0.84 | 0.67 | 0.94 | inactive |
| Serinc3 (GeneID 26943) | 1 | no change with or without drug | -0.22 | -0.17 | 0 | 0.92 | inactive |
| Lgi4 (GeneID 243914) | 1 | low cell count with doxorubicin only | -2.81 | -0.84 | -2.36 | 0.69 | active |
| Aox4 (GeneID 71872) | 1 | no change with or without drug | 0 | 0.51 | -0.22 | 0.94 | inactive |
| Thoc3 (GeneID 73666) | 1 | no change with or without drug | -0.34 | 0 | -0.22 | 0.91 | inactive |
| Josd1 (GeneID 74158) | 1 | no change with or without drug | -1.57 | 0 | -1.57 | 0.8 | inactive |
| Fbxw9 (GeneID 68628) | 1 | no change with or without drug | -0.67 | 0.17 | -0.67 | 0.88 | inactive |
| Gpr143 (GeneID 18241) | 1 | high cell count without drug only | -0.56 | 2.87 | -2.14 | 0.89 | inactive |
| Rras2 (GeneID 66922) | 1 | no change with or without drug | -0.45 | -0.17 | -0.22 | 0.9 | inactive |
| Hmox1 (GeneID 15368) | 1 | no change with or without drug | -1.46 | -0.67 | -1.01 | 0.81 | inactive |
| Baat (GeneID 12012) | 1 | high cell count with and without drug | 2.7 | 3.71 | 0.34 | 1.18 | inactive |
| Inhbb (GeneID 16324) | 1 | no change with or without drug | 0.45 | 0.84 | 0 | 0.98 | inactive |
| Lrrc3b (GeneID 218763) | 1 | no change with or without drug | 0.34 | -0.84 | 1.12 | 0.97 | inactive |
| Ctnnd1 (GeneID 12388) | 1 | no change with or without drug | 1.57 | 0.51 | 1.35 | 1.08 | inactive |
| Snurf (GeneID 84704) | 1 | no change with or without drug | -0.45 | -0.17 | -0.22 | 0.9 | inactive |
| Ang (GeneID 11727) | 1 | no change with or without drug | -0.45 | -0.17 | -0.22 | 0.9 | inactive |
| Acaa2 (GeneID 52538) | 1 | no change with or without drug | 1.01 | 1.69 | 0 | 1.03 | inactive |
| KCNK7 | 1 | no change with or without drug | -1.57 | -1.52 | -0.56 | 0.8 | inactive |
| Mamdc2 (GeneID 71738) | 1 | no change with or without drug | 0.22 | 0.51 | 0 | 0.96 | inactive |
| Tfap2a (GeneID 21418) | 1 | high cell count without drug only | 1.12 | 2.19 | -0.22 | 1.04 | inactive |
| Fam219b (GeneID 78323) | 1 | no change with or without drug | -1.35 | -1.85 | 0 | 0.82 | inactive |
| Mrpl3 (GeneID 94062) | 1 | no change with or without drug | 0.45 | 0.67 | 0.11 | 0.98 | inactive |
